Measured values: patent US20210187120A1 (WISCONSIN ALUMNI RESEARCH FOUNDATION, published 2021)
Results are given in words; binding and its absence hold for the method and conditions named. Some binding calls cover weakened binding; strength is not graded here. No end group written: not given here.

Chains of the proteins cited; added tags and fusions are not shown. Lines headed by an entry give the natural chain unless they say otherwise; changes in a name come on top. Residues count along the entry.
UniProt Q9NZQ7: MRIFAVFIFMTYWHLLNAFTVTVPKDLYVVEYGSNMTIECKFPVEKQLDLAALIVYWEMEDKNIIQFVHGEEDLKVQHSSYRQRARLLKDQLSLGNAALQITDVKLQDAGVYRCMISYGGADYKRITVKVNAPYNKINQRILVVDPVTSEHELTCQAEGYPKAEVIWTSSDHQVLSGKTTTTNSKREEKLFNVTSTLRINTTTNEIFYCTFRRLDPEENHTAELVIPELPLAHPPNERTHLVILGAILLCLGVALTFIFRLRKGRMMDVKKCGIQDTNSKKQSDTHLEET
PD-L1 on 786-O cells (PD-L1 overexpressing human renal cell carcinoma line) and MCF-7 cells (low PD-L1): residues 19-290 of Q9NZQ7
PD-L1 proteins (R&D systems): residues 19-239 of Q9NZQ7

Tests used:
[1] = target: PD-L1 proteins (R&D systems) (UniProt Q9NZQ7); test: SPR, PD-L1 immobilized, peptide injected at 25-200 µM
[2] = target: PD-L1 proteins (R&D systems) (UniProt Q9NZQ7); test: SPR
[3] = target: PD-L1 on 786-O cells (PD-L1 overexpressing human renal cell carcinoma line) and MCF-7 cells (low PD-L1) (human) (UniProt Q9NZQ7); test: fluorescence microscopy (rhodamine), cells treated for 1 h
[4] = target: PD-L1 on 786-O cells (PD-L1 overexpressing human renal cell carcinoma line) and MCF-7 cells (low PD-L1) (human) (UniProt Q9NZQ7); test: fluorescence microscopy of 786-O and MCF-7 cells
[5] = target: PD-L1 proteins (R&D systems) (UniProt Q9NZQ7); test: SPR, PD-L1 immobilized, conjugate injected at 0.1-0.8 µM

Measured: binding

B1: pL1TZ (Trp-Zip βH2 mutant peptide) (peptide)
peptide: HKVWHWESPSGQWDTWAA-NH2
notes: Free tryptophan-zipper peptide; also called pLiTZ
binds: [1] | [2]

HKVWHWESPSGQWDTWAA (conjugated to the dendrimer surface through the introduced lysine) [G7-pL1TZ (pL1TZ peptides conjugated to G7 dendrimer)]
not listed: [1]
binds: all other assays above
